Patent US7419799
Results are given in words; binding and its absence hold for the method and conditions named. Some binding calls cover weakened binding; strength is not graded here.

Chains of the proteins cited; added tags and fusions are not shown. Lines headed by an entry give the natural chain unless they say otherwise; changes in a name come on top.
UniProt Q96DU3: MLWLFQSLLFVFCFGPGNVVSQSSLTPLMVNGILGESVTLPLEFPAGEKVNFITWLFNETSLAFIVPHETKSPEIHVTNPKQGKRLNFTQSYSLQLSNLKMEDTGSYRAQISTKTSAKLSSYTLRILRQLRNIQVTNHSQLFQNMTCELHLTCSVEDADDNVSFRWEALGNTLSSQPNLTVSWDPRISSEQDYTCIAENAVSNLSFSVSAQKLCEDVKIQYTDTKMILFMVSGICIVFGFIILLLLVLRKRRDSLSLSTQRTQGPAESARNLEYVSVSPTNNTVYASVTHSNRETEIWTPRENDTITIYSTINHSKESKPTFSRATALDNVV

Experiments:
[1] = target: PRO20080 ECD-Fc fusion protein (human) [IgG part: P01857]; experiment: ELISA, PRO20080-Fc coated at 2 µg/ml, streptavidin-HRP detection
[2] = target: PRO20080 ECD-Fc fusion protein (human) [IgG part: P01857]; experiment: ELISA (legend of FIG. 6)

“biotinylated PRO20080 (from UniProt Q96DU3 22-226) (receptor)” was tested, and the binding [1] was “binds” and the binding [2] was “binds”.
